Reference: US9623063B2, “Extracts from Ajuga reptans cell lines, their preparation and use” (I.R.B. ISTITUTO DI RICERCHE BIOTECNOLOGICHE S.r.l., priority 2005, dated 2017)
For part of these data: At least one compound was matched to its structure with a doubt left. Some entries share one result that the patent states for a list of compounds.

How the values were obtained:
[1] = Metal chelation, spectrophotometric (Fe2+); format: physicochemical
Excerpt: (§1) The chelating activities of Ajuga reptans extracts in relation to Fe^2+, Fe^3+, Cu^2+ and Ni^2+ metal ions has been determined by means of spectrophotometric measurements using a Shimadzu 1770 UV spectrophotometer. The activities of chelating agents depends on the association constant (equilibrium) of their reactions with the metals according to the following reaction:
(§2) [formula] wherein Keq is the equilibrium constant equal to the ratio of concentrations at equilibrium of a complex and a product of equilibrium concentrations of metal ions and a chelator:
(§3) The method used for determining chelating activities is well documented in the literature (Korkina L G, Afarras'er I B. Antioxidant and chelating properties of flavonoids. Adv. Pharmacol., 1997, 38:151-63). The results are expressed as Keq (M^−1) calculated for a pure phenylpropanoid. This way the chelating activity against ferrous (Fe II), ferric (Fe III), copper (Cu II) and nickel ions has been calculated.

[2] = Hydroxyl radical scavenger activity (Fenton reaction, luminol chemiluminescence); format: biochemical; settings: means of 6 independent assays
Excerpt: Ajuga reptans Extracts 1 and 2, prepared as described in examples 1 and 2, and isoteupolioside have been used to assess in vitro antioxidant action with specific oxygen radical generating systems such as the superoxide anion (O2^−), the hydroxyl radical (HO^−), the peroxynitrite radical (ONOO^−) and the inhibition of lipid peroxidation. The superoxide anion has been measured by a chemiluminescent assay based on the hypoxanthine (HPX)/xanthine oxidase (XOD) reaction using the Lumimax Superoxide Anion Detection Kit (Stratagene, La Jolla, Calif., USA) and following the manufacturer's instructions. Hydroxyl radical scavenger activity has been measured by means of the Fenton reaction for the production of hydroxyl radicals and chemiluminescent dosage (using a Victor^3 chemiluminometer, Wallac, Finland) with luminol. Peroxynitrite ions have been determined by means of dosage with a spontaneous generator of peroxynitrites (3-morpholinosidnonimine hydrochloride; SIN-1) and a stable reagent for the nitroxyl ions (2-(4-carboxyphenyl)-4,4,5,5-tetramethylimidazoline-1-oxyl-3-oxide potassium salt PTIO spin trap) then dosed by means of electron spin resonance (ESR) using a Nippon Denshi JES-FR30. […]

[3] = Metal chelation, spectrophotometric (Fe3+); format: physicochemical; settings: calculated for a pure phenylpropanoid
Excerpt: as §1, §2, §3

[4] = Metal chelation, spectrophotometric (Cu2+); format: physicochemical; settings: calculated for a pure phenylpropanoid
Excerpt: as §1, §2, §3

[5] = Metal chelation, spectrophotometric (Ni2+); format: physicochemical; settings: vs rutin reference molecule
Excerpt: as §1, §2, §3

Compound | Fe^2+ (Keq, M^−1) ([1]; calculated for a pure phenylpropanoid) [M⁻¹] | Hydroxyl radial (IC50) [2] [µg/mL] | Fe^3+ (Keq, M^−1) [3] [M⁻¹] | Cu^2+ (Keq, M^−1) [4] [M⁻¹] | Chelating activity in relation to Fe2+, fold higher than rutin ([1]; vs rutin reference molecule) | Chelating activity in relation to Ni2+, fold higher than rutin [5]
C[C@@H]1O[C@@H](OC[C@H]2O[C@@H](Oc3c(-c4ccc(O)c(O)c4)oc4cc(O)cc(O)c4c3=O)[C@H](O)[C@@H](O)[C@@H]2O)[C@H](O)[C@H](O)[C@H]1O [Rutin, reference compound] | 140000 ± 40000 | 3.9 | 160000 ± 40000 | 110000 ± 40000 | – | –
C[C@@H]1O[C@@H](O[C@@H]2[C@@H](O)[C@H](OCCc3ccc(O)c(O)c3)O[C@H](CO)[C@H]2OC(=O)/C=C/c2ccc(O)c(O)c2)[C@H](O[C@@H]2O[C@H](CO)[C@H](O)[C@H](O)[C@H]2O)[C@H](O)[C@H]1O [Teupolioside, teupolioside] | – | – | – | – | 3-4 fold | 3-4 fold
